Test results published in article PMC6529519.
Results are given in words; binding and its absence hold for the method and conditions named. For part of these data: In cells and extracts the contact can be indirect. Some entries that bind do so weakly or less than the wild type.

Amino acid sequences for entries named in this document (tags omitted).
UniProt Q01196: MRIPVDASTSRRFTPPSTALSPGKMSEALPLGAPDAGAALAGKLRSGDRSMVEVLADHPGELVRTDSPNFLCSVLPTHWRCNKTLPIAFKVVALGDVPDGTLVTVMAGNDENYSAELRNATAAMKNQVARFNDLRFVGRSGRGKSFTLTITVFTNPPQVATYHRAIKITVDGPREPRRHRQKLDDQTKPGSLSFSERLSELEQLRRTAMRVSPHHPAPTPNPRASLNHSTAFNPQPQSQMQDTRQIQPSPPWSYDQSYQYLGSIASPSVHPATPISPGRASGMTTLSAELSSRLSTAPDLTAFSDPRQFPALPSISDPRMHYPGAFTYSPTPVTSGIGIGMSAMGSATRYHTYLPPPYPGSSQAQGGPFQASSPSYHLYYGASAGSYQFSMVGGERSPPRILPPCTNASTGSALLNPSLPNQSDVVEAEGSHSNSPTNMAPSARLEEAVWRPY
UniProt P35712: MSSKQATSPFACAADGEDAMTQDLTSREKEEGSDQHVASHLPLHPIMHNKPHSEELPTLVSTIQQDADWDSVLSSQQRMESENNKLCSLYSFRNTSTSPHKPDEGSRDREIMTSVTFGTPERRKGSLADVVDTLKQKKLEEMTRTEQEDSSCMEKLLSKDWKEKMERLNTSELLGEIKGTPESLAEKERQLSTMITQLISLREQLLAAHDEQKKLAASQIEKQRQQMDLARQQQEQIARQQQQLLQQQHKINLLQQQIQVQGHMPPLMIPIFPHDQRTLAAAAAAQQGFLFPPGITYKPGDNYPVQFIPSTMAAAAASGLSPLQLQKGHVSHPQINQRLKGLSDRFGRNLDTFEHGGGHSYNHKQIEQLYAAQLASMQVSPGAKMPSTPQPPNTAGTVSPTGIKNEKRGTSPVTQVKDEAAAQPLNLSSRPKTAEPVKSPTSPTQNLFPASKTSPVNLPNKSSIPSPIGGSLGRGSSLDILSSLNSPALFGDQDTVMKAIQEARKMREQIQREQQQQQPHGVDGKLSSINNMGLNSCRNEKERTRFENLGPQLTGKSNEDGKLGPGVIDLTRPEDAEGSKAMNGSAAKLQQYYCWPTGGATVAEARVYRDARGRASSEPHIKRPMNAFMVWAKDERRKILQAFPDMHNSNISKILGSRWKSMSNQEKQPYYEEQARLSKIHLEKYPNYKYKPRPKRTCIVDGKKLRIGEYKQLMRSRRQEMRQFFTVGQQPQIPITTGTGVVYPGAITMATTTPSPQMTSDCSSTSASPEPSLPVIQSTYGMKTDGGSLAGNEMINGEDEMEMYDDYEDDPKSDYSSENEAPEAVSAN
UniProt P35711: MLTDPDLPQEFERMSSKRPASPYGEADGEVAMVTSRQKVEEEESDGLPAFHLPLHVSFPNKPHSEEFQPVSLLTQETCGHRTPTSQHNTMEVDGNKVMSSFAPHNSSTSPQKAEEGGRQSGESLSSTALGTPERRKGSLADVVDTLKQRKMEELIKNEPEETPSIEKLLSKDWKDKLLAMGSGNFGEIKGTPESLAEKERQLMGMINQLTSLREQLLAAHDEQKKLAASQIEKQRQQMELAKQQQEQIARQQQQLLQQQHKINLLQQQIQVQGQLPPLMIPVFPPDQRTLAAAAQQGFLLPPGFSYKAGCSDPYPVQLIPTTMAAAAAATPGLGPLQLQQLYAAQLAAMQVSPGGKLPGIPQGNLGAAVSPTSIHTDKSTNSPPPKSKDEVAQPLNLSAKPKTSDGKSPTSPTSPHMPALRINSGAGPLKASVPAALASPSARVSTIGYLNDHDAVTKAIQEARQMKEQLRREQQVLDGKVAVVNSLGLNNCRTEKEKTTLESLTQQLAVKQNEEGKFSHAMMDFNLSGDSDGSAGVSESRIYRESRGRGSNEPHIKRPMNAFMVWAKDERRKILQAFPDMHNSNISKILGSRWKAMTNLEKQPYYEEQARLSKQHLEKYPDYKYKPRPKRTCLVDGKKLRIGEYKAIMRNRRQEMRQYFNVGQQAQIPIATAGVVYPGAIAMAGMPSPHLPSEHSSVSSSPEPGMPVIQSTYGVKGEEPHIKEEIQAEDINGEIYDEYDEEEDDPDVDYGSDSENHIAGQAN
UniProt P48436: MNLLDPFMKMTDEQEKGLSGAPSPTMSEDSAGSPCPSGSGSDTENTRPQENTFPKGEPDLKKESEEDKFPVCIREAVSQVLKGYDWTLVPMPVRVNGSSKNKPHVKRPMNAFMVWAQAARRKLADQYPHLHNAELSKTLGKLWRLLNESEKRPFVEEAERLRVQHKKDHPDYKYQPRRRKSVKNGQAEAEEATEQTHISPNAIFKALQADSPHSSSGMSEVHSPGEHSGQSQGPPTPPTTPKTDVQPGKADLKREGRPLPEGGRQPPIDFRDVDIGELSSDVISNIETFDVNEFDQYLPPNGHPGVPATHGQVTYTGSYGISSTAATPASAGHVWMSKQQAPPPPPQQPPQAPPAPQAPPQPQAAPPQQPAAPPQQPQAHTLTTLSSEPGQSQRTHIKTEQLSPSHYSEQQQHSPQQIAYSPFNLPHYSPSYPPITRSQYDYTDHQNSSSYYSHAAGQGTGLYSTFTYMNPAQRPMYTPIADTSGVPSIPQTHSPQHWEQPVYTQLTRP

Key:
[1] = biological target: Runt-related transcription factor 1 (Runx1), endogenous in human articular chondrocytes (human (endogenous in human articular chondrocytes)) (UniProt Q01196); assay: co-IP; whole cell lysates of human articular chondrocytes (M-PER kit); endogenous proteins; Catch and Release kit; IP with one antibody, immunoblot with the other
[2] = biological target: GAL4–Runx1 FL (full-length Runx1) (UniProt Q01196); assay: two-hybrid; Checkmate Mammalian Two-Hybrid System; GAL4–Runx1 constructs and VP16–Sox proteins with a luciferase reporter with GAL4 binding sites, transfected into HuH-7 cells
[3] = biological target: Runx1 overexpressed in HEK293 cells (UniProt Q01196); assay: co-IP; HEK293 cells overexpressing Runx1 and the Sox proteins (Supplementary Fig. S3)

Substance	binding [1]	binding [2]	binding [3]
Sox6, endogenous in human articular chondrocytes (from UniProt P35712 1-828)	binds	–	–
Sox5, endogenous in human articular chondrocytes (from UniProt P35711 1-763)	binds	–	–
VP16–Sox5 (from UniProt P35711 1-763)	–	binds	–
Sox9, endogenous in human articular chondrocytes (from UniProt P48436 1-509)	binds	–	–
VP16–Sox9 (from UniProt P48436 1-509)	–	binds	–
Sox6 overexpressed in HEK293 cells (from UniProt P35712 1-828)	–	–	binds
Sox5 overexpressed in HEK293 cells (from UniProt P35711 1-763)	–	–	binds
VP16–Sox6 (from UniProt P35712 1-828)	–	binds	–
Sox9 overexpressed in HEK293 cells (from UniProt P48436 1-509)	–	–	binds
